From the supplement of paper PMC12067093, “Discovery and optimisation of a covalent ligand for TRIM25 and its application to targeted protein ubiquitination” (Chemical Science, 2025)
The list shows a part of the results.

Chains of the proteins cited; added tags and fusions are not shown. Lines headed by an entry give the natural chain unless they say otherwise; changes in a name come on top.
UniProt Q13011: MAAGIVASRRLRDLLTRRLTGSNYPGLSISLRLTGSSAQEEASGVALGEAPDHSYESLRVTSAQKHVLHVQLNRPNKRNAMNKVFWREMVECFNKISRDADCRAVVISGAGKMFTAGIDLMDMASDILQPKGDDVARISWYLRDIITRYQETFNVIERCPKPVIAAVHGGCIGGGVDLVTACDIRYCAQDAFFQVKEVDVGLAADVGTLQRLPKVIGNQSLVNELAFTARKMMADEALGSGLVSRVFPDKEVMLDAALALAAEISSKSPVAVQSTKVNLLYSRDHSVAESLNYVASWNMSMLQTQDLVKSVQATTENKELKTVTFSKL
UniProt Q14204, whole entry, looked up: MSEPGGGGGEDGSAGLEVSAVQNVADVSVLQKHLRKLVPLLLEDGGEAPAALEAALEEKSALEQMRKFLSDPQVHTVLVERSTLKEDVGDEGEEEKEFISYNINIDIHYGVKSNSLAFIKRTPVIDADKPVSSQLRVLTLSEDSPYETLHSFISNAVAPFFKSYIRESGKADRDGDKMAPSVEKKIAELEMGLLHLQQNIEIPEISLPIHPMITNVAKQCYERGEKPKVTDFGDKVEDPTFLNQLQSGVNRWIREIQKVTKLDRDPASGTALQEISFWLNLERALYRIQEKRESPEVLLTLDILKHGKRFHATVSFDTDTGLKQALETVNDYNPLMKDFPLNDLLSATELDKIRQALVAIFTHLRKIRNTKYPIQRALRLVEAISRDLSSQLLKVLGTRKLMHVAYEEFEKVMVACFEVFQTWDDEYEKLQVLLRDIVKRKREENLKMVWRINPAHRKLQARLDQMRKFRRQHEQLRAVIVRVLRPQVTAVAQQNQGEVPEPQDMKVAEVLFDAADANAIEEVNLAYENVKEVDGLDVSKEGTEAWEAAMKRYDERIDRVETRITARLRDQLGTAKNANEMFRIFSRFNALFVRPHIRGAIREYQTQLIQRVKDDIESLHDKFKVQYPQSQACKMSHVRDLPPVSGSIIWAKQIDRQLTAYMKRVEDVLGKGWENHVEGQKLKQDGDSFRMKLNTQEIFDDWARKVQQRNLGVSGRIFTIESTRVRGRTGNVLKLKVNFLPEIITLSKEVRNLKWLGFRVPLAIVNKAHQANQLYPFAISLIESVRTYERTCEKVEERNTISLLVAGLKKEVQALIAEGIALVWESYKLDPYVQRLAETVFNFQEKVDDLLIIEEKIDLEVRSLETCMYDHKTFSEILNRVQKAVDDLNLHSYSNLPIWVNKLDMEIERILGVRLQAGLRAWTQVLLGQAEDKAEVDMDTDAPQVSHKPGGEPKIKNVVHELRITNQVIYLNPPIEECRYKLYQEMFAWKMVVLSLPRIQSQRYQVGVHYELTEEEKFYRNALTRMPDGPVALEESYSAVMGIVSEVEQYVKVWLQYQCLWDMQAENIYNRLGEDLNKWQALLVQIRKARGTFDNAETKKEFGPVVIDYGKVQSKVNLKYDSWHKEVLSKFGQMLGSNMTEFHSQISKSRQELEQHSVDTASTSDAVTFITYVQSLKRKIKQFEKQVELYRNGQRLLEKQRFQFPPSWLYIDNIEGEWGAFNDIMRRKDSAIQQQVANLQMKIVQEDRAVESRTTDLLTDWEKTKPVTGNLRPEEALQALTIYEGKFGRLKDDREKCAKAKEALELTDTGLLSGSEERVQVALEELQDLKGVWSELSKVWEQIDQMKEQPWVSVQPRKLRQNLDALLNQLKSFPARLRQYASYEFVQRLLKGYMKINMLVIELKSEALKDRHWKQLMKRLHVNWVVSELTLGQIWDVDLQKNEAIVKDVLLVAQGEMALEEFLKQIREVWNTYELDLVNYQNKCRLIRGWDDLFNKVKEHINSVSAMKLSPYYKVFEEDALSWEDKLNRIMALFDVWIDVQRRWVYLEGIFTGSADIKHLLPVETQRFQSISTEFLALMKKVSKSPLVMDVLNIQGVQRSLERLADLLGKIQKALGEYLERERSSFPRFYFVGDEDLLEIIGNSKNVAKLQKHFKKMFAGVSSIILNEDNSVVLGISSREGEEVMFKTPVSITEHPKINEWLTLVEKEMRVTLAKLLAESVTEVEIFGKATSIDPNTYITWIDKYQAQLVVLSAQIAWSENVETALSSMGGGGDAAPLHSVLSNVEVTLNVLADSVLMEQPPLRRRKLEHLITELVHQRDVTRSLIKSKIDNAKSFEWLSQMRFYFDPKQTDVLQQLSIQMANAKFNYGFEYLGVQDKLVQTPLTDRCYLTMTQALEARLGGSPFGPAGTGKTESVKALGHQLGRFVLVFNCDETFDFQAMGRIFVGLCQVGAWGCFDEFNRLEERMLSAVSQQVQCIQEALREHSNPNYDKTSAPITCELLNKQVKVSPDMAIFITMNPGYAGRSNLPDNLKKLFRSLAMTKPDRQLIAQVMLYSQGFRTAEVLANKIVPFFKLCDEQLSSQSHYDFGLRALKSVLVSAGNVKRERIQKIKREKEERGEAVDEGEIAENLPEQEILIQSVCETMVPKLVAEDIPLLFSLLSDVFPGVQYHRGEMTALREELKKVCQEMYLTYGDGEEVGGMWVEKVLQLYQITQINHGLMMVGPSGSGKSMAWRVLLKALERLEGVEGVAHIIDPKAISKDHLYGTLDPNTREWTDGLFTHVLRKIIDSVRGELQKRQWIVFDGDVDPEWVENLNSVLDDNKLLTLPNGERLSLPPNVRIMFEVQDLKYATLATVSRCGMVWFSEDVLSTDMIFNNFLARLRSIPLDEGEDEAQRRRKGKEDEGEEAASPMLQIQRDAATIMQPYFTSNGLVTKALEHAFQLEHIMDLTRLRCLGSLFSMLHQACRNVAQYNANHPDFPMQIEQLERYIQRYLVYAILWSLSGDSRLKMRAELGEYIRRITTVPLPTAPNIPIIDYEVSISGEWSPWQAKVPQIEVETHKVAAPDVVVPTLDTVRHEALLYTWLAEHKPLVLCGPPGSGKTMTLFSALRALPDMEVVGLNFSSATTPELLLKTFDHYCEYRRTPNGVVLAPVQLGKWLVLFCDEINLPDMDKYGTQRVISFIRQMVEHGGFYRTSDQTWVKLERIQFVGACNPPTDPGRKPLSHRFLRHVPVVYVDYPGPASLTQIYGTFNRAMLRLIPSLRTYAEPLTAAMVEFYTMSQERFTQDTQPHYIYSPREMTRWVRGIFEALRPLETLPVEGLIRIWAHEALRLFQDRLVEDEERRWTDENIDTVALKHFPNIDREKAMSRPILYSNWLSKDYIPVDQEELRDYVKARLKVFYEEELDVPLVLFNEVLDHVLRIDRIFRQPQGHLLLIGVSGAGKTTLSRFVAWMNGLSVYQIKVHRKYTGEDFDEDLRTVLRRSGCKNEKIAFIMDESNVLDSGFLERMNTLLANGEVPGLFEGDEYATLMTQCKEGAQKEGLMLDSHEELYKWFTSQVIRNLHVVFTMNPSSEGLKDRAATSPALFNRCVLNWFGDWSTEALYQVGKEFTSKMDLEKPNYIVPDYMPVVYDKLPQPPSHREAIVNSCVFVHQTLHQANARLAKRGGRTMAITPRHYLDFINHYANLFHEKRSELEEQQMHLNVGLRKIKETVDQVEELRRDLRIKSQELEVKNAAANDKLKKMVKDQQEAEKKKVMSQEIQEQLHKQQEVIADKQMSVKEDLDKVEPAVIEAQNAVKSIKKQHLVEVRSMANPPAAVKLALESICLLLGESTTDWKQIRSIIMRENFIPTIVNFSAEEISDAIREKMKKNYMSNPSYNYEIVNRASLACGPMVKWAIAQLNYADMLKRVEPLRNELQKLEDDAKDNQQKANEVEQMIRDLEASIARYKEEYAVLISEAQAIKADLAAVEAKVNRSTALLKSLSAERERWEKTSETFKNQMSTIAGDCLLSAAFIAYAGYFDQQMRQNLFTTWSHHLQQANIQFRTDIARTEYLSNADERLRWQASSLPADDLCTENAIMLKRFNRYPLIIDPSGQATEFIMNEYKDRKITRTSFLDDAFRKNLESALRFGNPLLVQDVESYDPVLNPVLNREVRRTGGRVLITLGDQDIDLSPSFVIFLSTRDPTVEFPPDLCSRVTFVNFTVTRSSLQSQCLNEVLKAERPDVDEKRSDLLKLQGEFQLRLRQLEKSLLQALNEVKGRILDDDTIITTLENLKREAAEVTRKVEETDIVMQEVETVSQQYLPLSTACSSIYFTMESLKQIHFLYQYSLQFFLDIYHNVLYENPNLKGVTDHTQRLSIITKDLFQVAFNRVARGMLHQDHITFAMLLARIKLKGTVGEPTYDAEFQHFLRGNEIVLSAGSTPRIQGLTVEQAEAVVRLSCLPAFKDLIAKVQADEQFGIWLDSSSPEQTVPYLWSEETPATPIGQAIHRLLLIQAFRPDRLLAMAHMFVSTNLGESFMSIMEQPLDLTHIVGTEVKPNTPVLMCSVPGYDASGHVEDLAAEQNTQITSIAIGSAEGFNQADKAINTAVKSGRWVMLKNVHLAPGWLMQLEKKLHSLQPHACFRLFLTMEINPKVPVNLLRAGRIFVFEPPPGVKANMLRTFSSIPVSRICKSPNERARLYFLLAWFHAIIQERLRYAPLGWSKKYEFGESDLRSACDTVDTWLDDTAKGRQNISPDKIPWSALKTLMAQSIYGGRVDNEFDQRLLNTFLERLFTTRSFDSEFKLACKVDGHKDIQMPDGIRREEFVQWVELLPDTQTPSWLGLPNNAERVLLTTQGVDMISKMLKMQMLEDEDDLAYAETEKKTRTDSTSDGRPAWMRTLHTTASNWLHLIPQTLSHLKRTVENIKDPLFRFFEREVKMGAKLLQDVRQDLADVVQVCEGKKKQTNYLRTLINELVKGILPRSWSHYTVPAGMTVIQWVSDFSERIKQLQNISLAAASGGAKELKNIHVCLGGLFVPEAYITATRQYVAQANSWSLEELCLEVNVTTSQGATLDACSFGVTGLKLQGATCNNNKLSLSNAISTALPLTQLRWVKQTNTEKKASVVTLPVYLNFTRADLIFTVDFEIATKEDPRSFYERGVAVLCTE
UniProt P60981: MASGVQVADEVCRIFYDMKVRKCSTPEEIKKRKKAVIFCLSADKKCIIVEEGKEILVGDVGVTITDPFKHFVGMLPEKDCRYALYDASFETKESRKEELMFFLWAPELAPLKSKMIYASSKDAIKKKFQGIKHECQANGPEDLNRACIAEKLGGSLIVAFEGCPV
UniProt Q9BU89: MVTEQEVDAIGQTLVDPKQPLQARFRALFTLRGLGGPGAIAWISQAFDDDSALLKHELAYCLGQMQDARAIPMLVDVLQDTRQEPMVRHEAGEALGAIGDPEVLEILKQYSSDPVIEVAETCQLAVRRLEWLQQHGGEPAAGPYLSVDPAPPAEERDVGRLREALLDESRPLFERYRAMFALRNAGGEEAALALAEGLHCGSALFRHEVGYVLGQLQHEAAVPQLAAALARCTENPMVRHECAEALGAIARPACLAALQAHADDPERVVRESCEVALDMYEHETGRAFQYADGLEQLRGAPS
UniProt Q92785, whole entry, looked up: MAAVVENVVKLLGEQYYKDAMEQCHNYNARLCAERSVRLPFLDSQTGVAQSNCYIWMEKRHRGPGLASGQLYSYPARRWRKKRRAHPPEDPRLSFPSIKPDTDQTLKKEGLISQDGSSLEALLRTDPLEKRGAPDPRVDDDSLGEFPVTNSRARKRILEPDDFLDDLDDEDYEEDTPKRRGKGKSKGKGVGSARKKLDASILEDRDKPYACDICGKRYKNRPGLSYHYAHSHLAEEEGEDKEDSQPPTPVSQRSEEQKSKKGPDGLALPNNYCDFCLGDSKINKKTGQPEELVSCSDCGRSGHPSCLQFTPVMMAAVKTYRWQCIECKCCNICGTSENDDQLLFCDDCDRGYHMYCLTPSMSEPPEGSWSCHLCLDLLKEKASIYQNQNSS
UniProt Q9P2X0: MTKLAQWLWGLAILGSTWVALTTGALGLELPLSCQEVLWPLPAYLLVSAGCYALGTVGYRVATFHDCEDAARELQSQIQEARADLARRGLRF
UniProt O95905: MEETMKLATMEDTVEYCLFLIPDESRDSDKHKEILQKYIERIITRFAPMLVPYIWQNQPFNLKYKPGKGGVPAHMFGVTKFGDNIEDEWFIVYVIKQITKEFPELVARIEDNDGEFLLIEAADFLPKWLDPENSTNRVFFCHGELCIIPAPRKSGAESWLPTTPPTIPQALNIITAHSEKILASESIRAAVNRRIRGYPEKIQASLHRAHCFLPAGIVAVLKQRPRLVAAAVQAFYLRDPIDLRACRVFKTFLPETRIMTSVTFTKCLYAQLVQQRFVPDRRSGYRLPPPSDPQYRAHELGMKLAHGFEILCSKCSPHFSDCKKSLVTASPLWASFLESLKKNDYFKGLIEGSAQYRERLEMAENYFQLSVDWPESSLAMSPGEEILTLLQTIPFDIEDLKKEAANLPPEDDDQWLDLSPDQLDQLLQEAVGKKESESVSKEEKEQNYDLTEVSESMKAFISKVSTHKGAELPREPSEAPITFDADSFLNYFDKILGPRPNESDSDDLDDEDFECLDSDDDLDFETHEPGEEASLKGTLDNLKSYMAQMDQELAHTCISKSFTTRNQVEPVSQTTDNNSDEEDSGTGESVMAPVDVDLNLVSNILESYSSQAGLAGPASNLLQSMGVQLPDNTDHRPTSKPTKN

Compound: Cc1cc(ccc1-c1ccccc1)C(=O)N1CCCN(CC1)C(=O)CCl [compound 10]
Experiment: probe-labelled cysteine peptide fold change vs DMSO (competition) (log2 fold change); higher = less target engagement (more negative = stronger competition)
Conditions: THP-1, incubation time: 4 h
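Also: competitive profiling in live THP-1 cells: cysteine peptides tagged with an iodoacetamide desthiobiotin (IA-DTB) probe, intensity after compound treatment relative to DMSO-treated cells.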

| Target | probe-labelled cysteine peptide fold change (10 µM) | probe-labelled cysteine peptide fold change (50 µM) |
| --- | --- | --- |
| ECH1_Q13011_182_CPKPVIAAVHGGCIGGGVDLVTACDIR (UniProt Q13011) | 0.139 | -0.105 |
| DPP8_Q6V1X1_221_LCPADPDWIAFIHSNDIWISNIVTR (UniProt Q6V1X1) | -0.0227 | -0.032 |
| DPP3_Q9NY33_176_EGITTYFSGNCTMEDAK (UniProt Q9NY33) | 0.127 | 0.164 |
| DYNC1H1_Q14204_3389_ASLACGPMVK (UniProt Q14204) | -0.0846 | 0.126 |
| DYNC1H1_Q14204_4570_LQGATCNNNK (UniProt Q14204) | -0.0564 | -0.139 |
| DOCK6_Q96HP0_1619_HAELGNHAEAAQCMVHAAALVAEYLALLEDHR (UniProt Q96HP0) | -0.0641 | 0.0257 |
| DPP9_Q86TI2_550_LTTPGFSHSCSMSQNFDMFVSHYSSVSTPPCVHVYK (UniProt Q86TI2) | 0.422 | 0.456 |
| DSTN_P60981_12_ASGVQVADEVCR (UniProt P60981) | 0.0942 | 0.212 |
| DUS3L_Q96G46_315_LYLAPLTTCGNLPFRR (UniProt Q96G46) | -0.324 | -0.567 |
| DYNC1H1_Q14204_4644_GVAVLCTE (UniProt Q14204) | -0.185 | 0.0749 |
| DOCK11_Q5JSL3_1883_QGCIEEQCK (UniProt Q5JSL3) | -0.0998 | -0.412 |
| DOCK2_Q92608_1258_WSDEQCASQVMQTGQQHPQTHR (UniProt Q92608) | -0.134 | 0.167 |
| DSTN_P60981_46_KCIIVEEGK (UniProt P60981) | 0.0762 | -0.534 |
| DNPH1_O43598_117_RILCLFRPQSGR (UniProt O43598) | -0.368 | -0.165 |
| DPP9_Q86TI2_259_FTGYWWCPTASWEGSEGLK (UniProt Q86TI2) | 0.158 | 0.28 |
| DSTN_P60981_46_CIIVEEGK (UniProt P60981) | 0.0252 | 0.0986 |
| DRAP1_Q14919_73_QCIELEQQFDFLK (UniProt Q14919) | 0.0445 | -0.0103 |
| DYNC1H1_Q14204_3573_WQASSLPADDLCTENAIMLK (UniProt Q14204) | -0.173 | 0.175 |
| ECHDC1_Q9NTX5_133_SLGTPEDGMAVCMFMQNTLTR (UniProt Q9NTX5) | 0.298 | 0.0908 |
| DOP1B_Q9Y3R5_70_LAQCLHPALPSGVHLK (UniProt Q9Y3R5) | 0.232 | 0.217 |
| DTX3L_Q8TDB6_446_QVDLSVHAYASFIDAFQHASCQLMR (UniProt Q8TDB6) | 0.0901 | 0.505 |

| Target | probe-labelled cysteine peptide fold change (10 µM) | probe-labelled cysteine peptide fold change (50 µM) |
| --- | --- | --- |
| DOCK6_Q96HP0_595_SSCSEFTR (UniProt Q96HP0) | -0.0366 | -0.0966 |
| DUS1L_Q6P1R4_265_EHPCPLSYVR (UniProt Q6P1R4) | 0.0863 | -0.0331 |
| DOK2_O60496_65_LSDCLR (UniProt O60496) | -0.0637 | -0.196 |
| DYNC1H1_Q14204_2454_CLGSLFSMLHQACR (UniProt Q14204) | -0.1 | 0.00442 |
| DYRK1A_Q13627_312_IVDFGSSCQLGQR (UniProt Q13627) | 0.178 | 0.0341 |
| DYNC1H1_Q14204_4121_LHSLQPHACFR (UniProt Q14204) | -0.203 | -0.112 |
| DOHH_Q9BU89_122_QYSSDPVIEVAETCQLAVR (UniProt Q9BU89) | 0.104 | -0.273 |
| DUSP19_Q8WTR2_188_NARPSICPNSGFMEQLR (UniProt Q8WTR2) | -0.0574 | -0.0443 |
| DSTN_P60981_163_LGGSLIVAFEGCPV (UniProt P60981) | -0.192 | -0.173 |
| DOK3_Q7L591_144_LADCVSVLPADGESCPR (UniProt Q7L591) | 0.15 | -0.157 |
| DUSP27_Q5VZP5_912_SNSQKPETDTCSSLAVCDHYASGSR (UniProt Q5VZP5) | -0.203 | -0.273 |
| DUSP23_Q9BVJ7_67_IPDFCPPAPDQIDR (UniProt Q9BVJ7) | 0.0201 | 0.0861 |
| DYNC1H1_Q14204_1977_MLSAVSQQVQCIQEALREHSNPNYDK (UniProt Q14204) | -0.166 | -0.401 |
| DOCK5_Q9H7D0_859_LNCMTK (UniProt Q9H7D0) | 0.0398 | 0.000881 |
| DPP7_Q9UHL4_338_LYHSCADPTGCGTGPDAR (UniProt Q9UHL4) | 0.0677 | 0.0143 |
| DSTN_P60981_23_CSTPEEIK (UniProt P60981) | -0.161 | -0.26 |
| DOCK8_Q8NF50_391_LQAESFCQR (UniProt Q8NF50) | -0.117 | 0.1 |
| DOT1L_Q8TEK3_1397_EAGEGGLPLCGPTDK (UniProt Q8TEK3) | -0.195 | -0.0739 |
| DYNC1H1_Q14204_3712_SSLQSQCLNEVLK (UniProt Q14204) | -0.0469 | -0.00646 |
| DUSP23_Q9BVJ7_95_GEAVGVHCALGFGR (UniProt Q9BVJ7) | 0.314 | -0.0562 |
| DXO_O77932_108_DEEVQERLDHLLCWLLEHR (UniProt O77932) | 0.222 | 0.183 |

| Target | probe-labelled cysteine peptide fold change (10 µM) | probe-labelled cysteine peptide fold change (50 µM) |
| --- | --- | --- |
| DOCK11_Q5JSL3_1906_RIPINCEQQINLKPIDVATDEIK (UniProt Q5JSL3) | -0.105 | -0.0468 |
| DTX3L_Q8TDB6_585_HEFCAPCINK (UniProt Q8TDB6) | -0.017 | -0.343 |
| DSCR3_O14972_137_TCEFIVHSAPQK (UniProt O14972) | 0.229 | 0.202 |
| EAF2_Q96CJ1_29_CAFHTVR (UniProt Q96CJ1) | 0.161 | 0.245 |
| DOCK11_Q5JSL3_835_FFHHCQLIQSGSK (UniProt Q5JSL3) | 0.129 | 0.258 |
| DPCD_Q9BVM2_164_FSIPDLDRHQLPLDDALLSFAHANCTLIISYQK (UniProt Q9BVM2) | 0.107 | 0.223 |
| ECH1_Q13011_159_CPKPVIAAVHGGCIGGGVDLVTACDIR (UniProt Q13011) | -0.00276 | -0.154 |
| DPP8_Q6V1X1_611_LSSPEDDPTCK (UniProt Q6V1X1) | 0.0532 | 0.0401 |
| DNPEP_Q9ULA0_447_EMACTTGVLQTLTLFK (UniProt Q9ULA0) | 0.0598 | 0.144 |
| EAF1_Q96JC9_15_MNGTANPLLDREEHCLR (UniProt Q96JC9) | 0.231 | 0.323 |
| DPF2_Q92785_333_CCNICGTSENDDQLLFCDDCDR (UniProt Q92785) | 0.147 | 0.29 |
| DNMT1_P26358_762_VCIDAETLEVGDCVSVIPDDSSK (UniProt P26358) | -0.0351 | -0.493 |
| DYNC1H1_Q14204_2712_IQFVGACNPPTDPGRKPLSHR (UniProt Q14204) | -0.0552 | 0.27 |
| DOK3_Q7L591_133+144_LADCVSVLPADGESCPR (UniProt Q7L591) | -0.254 | -0.356 |
| ECH1_Q13011_159+171_CPKPVIAAVHGGCIGGGVDLVTACDIR (UniProt Q13011) | 0.0785 | -0.0937 |
| DOCK8_Q8NF50_186_HLNVLCDVSGK (UniProt Q8NF50) | -0.224 | -0.222 |
| DPP9_Q86TI2_601_FWASMMEAASCPPDYVPPEIFHFHTR (UniProt Q86TI2) | 0.01 | 0.052 |
| DNPH1_O43598_26_GEPGRPALYFCGSIR (UniProt O43598) | -0.0894 | -0.132 |
| DPP9_Q86TI2_225_RLTFCHQGLSNVLDDPK (UniProt Q86TI2) | 0.249 | -0.147 |
| DOT1L_Q8TEK3_1075_GDCVPSHGQDSR (UniProt Q8TEK3) | -0.037 | -0.209 |
| DPM3_Q9P2X0_67_VATFHDCEDAAR (UniProt Q9P2X0) | 0.0699 | 0.242 |

| Target | probe-labelled cysteine peptide fold change (10 µM) | probe-labelled cysteine peptide fold change (50 µM) |
| --- | --- | --- |
| DOHH_Q9BU89_242_HECAEALGAIAR (UniProt Q9BU89) | 0.14 | -0.058 |
| DPYSL2_Q16555_132_SCCDYSLHVDISEWHK (UniProt Q16555) | 0.249 | -0.196 |
| ECD_O95905_211_AHCFLPAGIVAVLK (UniProt O95905) | -0.359 | 0.219 |
| DYNC1H1_Q14204_1888_CYLTMTQALEAR (UniProt Q14204) | -0.0386 | -0.161 |
| ECHS1_P30084_111_EMQNLSFQDCYSSK (UniProt P30084) | -0.15 | 0.0484 |
| DRG1_Q9Y295_195_GGINLTATCPQSELDAETVK (UniProt Q9Y295) | 0.231 | 0.182 |
| DRG2_P55039_319_GASVEHVCHR (UniProt P55039) | 0.0827 | 0.0514 |
| DST_Q03001_5394_AAQLQEALLHCGR (UniProt Q03001) | 0.0694 | 0.239 |
| DTX3L_Q8TDB6_577_CKHEFCAPCINK (UniProt Q8TDB6) | -0.216 | -0.472 |
| DOCK2_Q92608_1234_DLHLDCDNYTEAAYTLLLHTWLLK (UniProt Q92608) | 0.294 | 0.456 |
| DTX3L_Q8TDB6_159_AYITTLCPSIR (UniProt Q8TDB6) | -0.296 | -0.132 |
| DPF2_Q92785_298_TGQPEELVSCSDCGR (UniProt Q92785) | 0.307 | 0.271 |
| DOK3_Q7L591_493_GPAPCDRP (UniProt Q7L591) | -0.0347 | 0.123 |
| DYNC1H1_Q14204_633_VQYPQSQACK (UniProt Q14204) | -0.0525 | -0.0257 |
| DPH2_Q9BQC3_157_APVVLLSEPACAHALEALATLLRPR (UniProt Q9BQC3) | 0.0215 | 0.0943 |
| DOCK10_Q96BY6_1103_FDFLQEVCQHEHFIPLCLPIR (UniProt Q96BY6) | -0.0111 | 0.0119 |
| DYNC1H1_Q14204_2076_LCDEQLSSQSHYDFGLR (UniProt Q14204) | 0.000184 | 0.106 |
| DPYD_Q12882_671_SEDSGADALELNLSCPHGMGER (UniProt Q12882) | -0.0548 | -0.264 |
| ECD_O95905_312_LAHGFEILCSK (UniProt O95905) | -0.157 | -0.455 |
| DYNC1LI2_O43237_231_RGPLTSGSDEENVALPLGDNVLTHNLGIPVLVVCTK (UniProt O43237) | 0.661 | 0.157 |
